# The other results are listed elsewhere or left out. For some assays here: Construct or isoform of the protein are uncertain.
# How the values were obtained:
# Assay in all cases: protein microarray (ProtoArray v5.0), streptavidin-Alexa Fluor 647
# Details in all cases: 3'-biotin; 20 mM Tris (pH 7.5), 5 mM MgCl2, 100 mM KCl, 0.1% Tween-20, A/T-rich and random oligonucleotide blockers; temperature not stated; high values mean tight binding
# [1] = system: Uncharacterized protein C18orf1 (human)
# [2] = system: Uncharacterized protein C1orf74 (human)
# [3] = system: Uncharacterized protein C2orf57 (human)
# [4] = system: Uncharacterized protein C2orf62 (human)
# [5] = system: Uncharacterized protein C7orf50 (human)
# [6] = system: Uncharacterized protein C8orf41 (human)
# [7] = system: Uridine-cytidine kinase 2 (human)
# [8] = system: V-type proton ATPase subunit F (human)
# [9] = system: V-type proton ATPase subunit e 1 (human)
# VAC14 (human) = system: VAC14 (human)
# VAMP2 (human) = system: VAMP2 (human)
# VAMP5 (human) = system: VAMP5 (human)
# VANGL1 = target: T1, VANGL1 (UniProt Q8TAA9)
# T1 sequence: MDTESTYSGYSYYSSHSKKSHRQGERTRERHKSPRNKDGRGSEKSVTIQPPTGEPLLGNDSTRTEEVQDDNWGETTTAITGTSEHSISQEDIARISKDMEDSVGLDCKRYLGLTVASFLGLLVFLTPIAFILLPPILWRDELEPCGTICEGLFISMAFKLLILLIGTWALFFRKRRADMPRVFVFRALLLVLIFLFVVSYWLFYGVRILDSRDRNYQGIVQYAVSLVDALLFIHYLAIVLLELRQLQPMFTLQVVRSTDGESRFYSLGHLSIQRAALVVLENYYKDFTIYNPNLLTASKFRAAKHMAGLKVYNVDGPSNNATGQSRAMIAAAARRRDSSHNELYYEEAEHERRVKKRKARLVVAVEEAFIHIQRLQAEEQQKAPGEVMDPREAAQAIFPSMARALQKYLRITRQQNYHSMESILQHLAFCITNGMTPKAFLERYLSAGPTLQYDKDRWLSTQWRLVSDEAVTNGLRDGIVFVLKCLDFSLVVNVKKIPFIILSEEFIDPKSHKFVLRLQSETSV
# VENTX (human) = system: VENTX (human)
# VPS25 (human) = system: VPS25 (human)
# VPS28 (human) = system: VPS28 (human)
# VPS29 (human) = system: VPS29 (human)
# VPS33B (human) = system: VPS33B (human)
# VPS36 (human) = system: VPS36 (human)
# VPS37A (human) = system: VPS37A (human)
sequence,measurement,setting,value
GGGGACAGGGGTATGGGGAGGGG [G4-3 biotinylated (CtG)],binding signal,[1],-0.327 z-score
same,binding signal,[2],-0.327 z-score
same,binding signal,[3],-0.327 z-score
same,binding signal,[4],-0.338 z-score
same,binding signal,[5],3.5 z-score
same,binding signal,[6],-0.328 z-score
same,binding signal,[7],-0.326 z-score
same,binding signal,[8],-0.342 z-score
same,binding signal,[9],-0.325 z-score
same,binding signal,VAC14 (human),-0.33 z-score
same,binding signal,VAMP2 (human),-0.299 z-score
same,binding signal,VAMP5 (human),-0.32 z-score
same,binding signal,VANGL1,-0.312 z-score
same,binding signal,VENTX (human),-0.3 z-score
same,binding signal,VPS25 (human),-0.35 z-score
same,binding signal,VPS28 (human),-0.344 z-score
same,binding signal,VPS29 (human),-0.318 z-score
same,binding signal,VPS33B (human),-0.301 z-score
same,binding signal,VPS36 (human),-0.337 z-score
same,binding signal,VPS37A (human),-0.331 z-score

# Reformatted with tabs: part of the list above.
sequence	measurement	setting	value
GGGGACAGGGGTATGGGGAGGGG [G4-3 biotinylated (CtG)]	binding signal	[4]	-0.338 z-score
same	binding signal	[5]	3.5 z-score
same	binding signal	[6]	-0.328 z-score

# — publication PMC5996148
